Data as given in PubChem BioAssay AID686938 (Drosophila RNAi Screening Center, 2013)
Test: 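Knock-downs reducing store-operated calcium influx in Drosophila cells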 (primary screen). Cell system: Drosophila S2R+ cells. Reagents: long dsRNA against Drosophila genes, about 0.25 µg dsRNA per well, roughly 10,000 cells. Duration: 5 days of knock-down before the calcium assay. Conditions: thapsigargin (SERCA pump blocker) to empty calcium stores; entry signal taken 4 min after adding it. Detection: 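Duplicate raw fluo-4 intensities per well from a plate reader, at rest and four minutes after thapsigargin emptied calcium stores; entry-to-rest ratio filled for only some wells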. Scale: calcium entry signal: higher = stronger calcium signal after store depletion; entry to resting ratio: higher = more calcium entry relative to resting level; resting calcium signal: higher = higher resting calcium signal. Hit rule: 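Called when the plate z-score of the entry-to-rest ratio, mean of duplicates, falls below −3; wells with low overall dye signal (Fmax z below −2) or more than five off-targets excluded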. Meaning of the calls: active = strongly reduced calcium entry; inactive = no strong reduction.
In all, the deposit lists about 23,000 reagents; shown is a random part of those that have a named target and a result. Of all reagents, 75 (0.33%) got an active call. 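Raw plate signals without normalisation; calls rest on plate z-scores that were not deposited; ratio present for only 364 wells.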 Names joined by + are all predicted targets of the reagent. Not given: the dose of the treatment.

no.	gene knocked down	DRSC id	calcium entry signal, replicate 1 (fluorescence units)	calcium entry signal, replicate 2 (fluorescence units)	entry to resting ratio	resting calcium signal, replicate 1 (fluorescence units)	resting calcium signal, replicate 2 (fluorescence units)	call
1	Nf1	DRSC16758	2.62e7	2.74e7		1.16e7	1.31e7	inactive
2	CG3777	DRSC18489	4.58e7	3.06e7		2.41e7	1.56e7	inactive
3	CG42500	DRSC14822	1.80e7	3.11e7		1.02e7	5.90e7	inactive
4	Taf8	DRSC20363	2.44e7	1.99e7		1.33e7	9.94e6	inactive
5	CG33557	DRSC17854	3.82e7	5.23e7		1.92e7	2.43e7	inactive
6	CR32733 + CG32797	DRSC17705	5.04e7	5.36e7		2.21e7	2.66e7	inactive
7	D	DRSC11132	4.63e7	6.21e7		2.12e7	2.64e7	inactive
8	CG14185	DRSC10184	3.05e7	4.69e7		1.54e7	1.98e7	inactive
9	CG15196	DRSC19643	2.64e7	3.82e7		1.44e7	1.83e7	inactive
10	fng	DRSC11455	5.69e7	3.69e7		3.17e7	1.86e7	inactive
11	fng	DRSC11887	4.11e7	4.43e7		1.87e7	3.13e7	inactive
12	fng	DRSC21935	3.00e7	5.36e7		1.48e7	2.79e7	inactive
13	gt	DRSC18782	2.54e7	2.63e7	1.9	1.35e7	1.36e7	inactive
14	gt	DRSC23119	3.76e7	4.17e7		1.84e7	2.01e7	inactive
15	CG9689	DRSC18440	4.01e7	4.05e7		1.89e7	1.79e7	inactive
16	Dp	DRSC07402	1.61e7	1.93e7		8.23e6	9.96e6	inactive
17	CG13807	DRSC08342	2.96e7	4.25e7		1.62e7	2.16e7	inactive
18	M6	DRSC11869	2.76e7	4.59e7		1.28e7	1.87e7	inactive
19	CG43190	DRSC05316	3.91e7	2.66e7		1.91e7	1.09e7	inactive
20	Fer1	DRSC12507	4.19e7	4.23e7		1.90e7	1.96e7	inactive
21	Fer1	DRSC12555	4.68e7	5.30e7		2.19e7	2.26e7	inactive
22	CG31287	DRSC13138	3.42e7	4.06e7		1.69e7	1.83e7	inactive
23	CG15784	DRSC18090	2.23e7	2.33e7		1.13e7	1.30e7	inactive
24	CG5577	DRSC10519	4.07e7	4.22e7		1.92e7	2.91e7	inactive
25	CG30283	DRSC04071	4.58e7	4.78e7		2.11e7	2.01e7	inactive
26	Marf	DRSC18329	3.19e7	3.62e7		1.56e7	1.75e7	inactive

Next part, starting with the last 4 of the part before.
no.	gene knocked down	DRSC id	calcium entry signal, replicate 1 (fluorescence units)	calcium entry signal, replicate 2 (fluorescence units)	entry to resting ratio	resting calcium signal, replicate 1 (fluorescence units)	resting calcium signal, replicate 2 (fluorescence units)	call
23	CG15784	DRSC18090	2.23e7	2.33e7		1.13e7	1.30e7	inactive
24	CG5577	DRSC10519	4.07e7	4.22e7		1.92e7	2.91e7	inactive
25	CG30283	DRSC04071	4.58e7	4.78e7		2.11e7	2.01e7	inactive
26	Marf	DRSC18329	3.19e7	3.62e7		1.56e7	1.75e7	inactive
27	CG34278	DRSC13208	3.89e7	4.26e7		2.03e7	2.11e7	inactive
28	fj	DRSC07619	4.88e7	4.47e7		2.11e7	2.05e7	inactive
29	Sgs1	DRSC00787	2.88e7	3.50e7		1.43e7	1.58e7	inactive
30	Sgs1	DRSC00848	5.06e7	3.60e7		2.53e7	1.66e7	inactive
31	CG32814	DRSC17670	4.88e7	2.95e7		2.19e7	1.28e7	inactive
32	CG32262	DRSC08165	3.93e7	3.18e7		2.66e7	1.33e7	inactive
33	Ppcs	DRSC14127	3.03e7	2.28e7		1.40e7	1.11e7	inactive
34	Mnn1	DRSC03368	3.24e7	3.52e7		1.66e7	1.67e7	inactive
35	pcx	DRSC18186	3.45e7	6.57e7	2	1.71e7	2.86e7	inactive
36	pcx	DRSC18187	3.36e7	6.49e7	2	1.71e7	2.93e7	inactive
37	pcx	DRSC18188	4.32e7	6.30e7	2	2.12e7	2.86e7	inactive
38	pcx	DRSC18189	5.52e7	5.80e7	2	2.71e7	2.56e7	inactive
39	pcx	DRSC18190	5.65e7	5.50e7	2.1	2.68e7	2.38e7	inactive
40	pcx	DRSC18816	5.05e7	4.43e7		2.15e7	2.05e7	inactive
